Reference: publication PMC6063905
No constants are given. Whether binding was seen depends on the method and setting. In cells and extracts the contact can be indirect.

Legend:
[1] = target: T1, Fld1-TAP (yeast (endogenous in strains isogenic to BY4741 or BY4742)) (UniProt Q06058); test: co-IP; TAP-tagged bait isolated overnight on calmodulin sepharose 4B beads from crude membranes solubilised in 1% digitonin; 50 mM Tris pH 7.4, 150 mM NaCl, 2 mM MgCl2, 4 °C; eluates analysed by SDS-PAGE and immunoblotting
T1 sequence: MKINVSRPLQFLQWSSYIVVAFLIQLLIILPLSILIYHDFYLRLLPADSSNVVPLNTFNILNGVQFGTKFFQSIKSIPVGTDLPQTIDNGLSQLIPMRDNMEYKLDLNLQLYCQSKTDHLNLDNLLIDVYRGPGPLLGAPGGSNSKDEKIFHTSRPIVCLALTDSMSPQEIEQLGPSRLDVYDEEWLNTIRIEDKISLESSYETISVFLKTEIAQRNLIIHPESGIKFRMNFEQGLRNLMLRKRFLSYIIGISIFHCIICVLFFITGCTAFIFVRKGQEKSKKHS

[2] = target: T2, Ldb16-TAP (yeast (endogenous in strains isogenic to BY4741 or BY4742)) (UniProt P25587); test: as above
T2 sequence: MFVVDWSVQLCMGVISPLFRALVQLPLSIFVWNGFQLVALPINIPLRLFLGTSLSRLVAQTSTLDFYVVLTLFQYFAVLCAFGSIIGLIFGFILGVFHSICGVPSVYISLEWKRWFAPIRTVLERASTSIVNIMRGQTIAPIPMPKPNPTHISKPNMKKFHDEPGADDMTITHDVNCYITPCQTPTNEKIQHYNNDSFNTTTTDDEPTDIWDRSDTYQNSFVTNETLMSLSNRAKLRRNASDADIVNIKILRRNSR

B1: Pex30 (protein, UniProt Q06169 1-523)
chain: MSGNTTNVHETRAKFAETLQPRIGGNTTKVIRAALEKNEAESGVSEDNDNGSLEKVNVATSPLLTSTPPTISKALVKLYPYLILIDEFLNVVTWTGKNIWSSVLMLCLFITTVEYFETLVKYFGHLAIIAILWGYSLLDNYIEGTLSSSPTLEDIALLMNRVSLKSDILLSPMVNLGTQDIQRLLYTTVILSPIYVMITWLLLPPRSLMLMVGMFLLTYHSPWSKVARRLLWKFKIVRLLVFYVTGLDLGGINKDQGIFATVQKQVKKLASTENSNGVLSDSKPIRFTYVLYENQRRWLGIGWKPSMLSYERTPWTDEFLNEAPSPENFHLPEETNTMVWRWVDKTWRLDMTNDGAIQVPNSKARTSADPSPDEGFIYYDNTWKKPSKEDSFSKYTRRRRWVRTAELVKTSDFDESVINSNRNSAIEQKVEENSTNGLTAEQELGSNKQEKDNAKKVGEPTTEETKEFAEASNINEGEFERISSTDEEVLKSRARDRLAKVLDDTEEKEQSNPTIGRDSKKAV
binding [1]: no binding
binding [2]: no binding
